Values quoted from earlier work, collected in patent US20160061849A1, “LIPIDOMIC BIOMARKERS” (UNITHER VIROLOGY, LLC, priority 2014, published 2016).
At least one compound was matched to its structure with a doubt left.

Test system: HCV
Conditions: free state; replicon and infectious virus systems; cited from earlier work

CC/C=C\C/C=C\C/C=C\C/C=C\C/C=C\C/C=C\CCC(=O)O [docosahexaenoic acid]
antiviral vs. HCV: antiviral
